Assay results taken from PubChem BioAssay AID504834 (National Center for Advancing Translational Sciences (NCATS), 2011).
Screen size: about 320,000 compounds; about 22,000 (6.9%) were called active. The inconclusive results got no clear call from the source; some entries with a clear call stand among them for comparison. Calls come from the whole dose curve; as a rule, active = well fitted inhibition curve with a large enough effect; inconclusive = small, poorly fitted or top-dose-only effect, or another doubt; inactive = no such curve, though single readings can be large or run the other way. Potencies beside an inconclusive call are fits to weak or partial responses and may not hold up.
% is set by controls: 0 for no effect and ±100 for the full control effect; potency is the fitted concentration of half-maximal effect.

Test: Primary qHTS for delayed death inhibitors of the malarial parasite plastid, 96 hour incubation
Conditions: P. falciparum luciferase reporter growth; series mostly up to 28.7 µM; activity change, negative = inhibition: at the top concentration
In short: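 Two-generation exposure (96 h) targets delayed-death phenotype. Reporter parasites carrying integrated firefly luciferase, in red cells at 2% hematocrit and 0.05% parasitemia final, kept at 37 C, 5% CO2; luminescence loss indicates inhibition.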
For `Cc1cc(C)c(/C=N/NC(N)=O)c(C)c1/C=N/NC(N)=O`, the Potency was inconclusive: 18.5 µM [inhibitor, single point].
In the case of `Oc1ccccc1-c1nc(NCCN2CCOCC2)c2ccccc2n1`, the Potency is reported as inconclusive: 16.5 µM [inhibitor, single point].
With `CSCC[C@H](NC(=O)[C@@H]1Cc2ccccc2CN1)C(=O)Nc1ccc2c(c1)OCO2` the Potency was inconclusive: 14.7 µM [inhibitor, single point].
With `CN1CCN(c2ccc(Cl)cc2NC(=O)/C=C/c2cccc(F)c2)CC1` the Potency was inconclusive: 14.7 µM [inhibitor, partial curve, poor fit].
With `CCC1CCCCN1C(=O)CCC(=O)Nc1nnc(C(F)(F)F)s1` (stereo not drawn) the Potency was inconclusive: 3.7 µM [inhibitor, partial curve, poor fit].
In the case of `Cc1cc(C)cc(OCC(=O)Nc2nc(-c3ccccn3)cs2)c1`, the Potency is reported as inconclusive: 18.5 µM [inhibitor, single point].
For `Cc1cc(C)c(S(=O)(=O)c2ccc(F)cc2C)c(=O)[nH]1`, the “activity change, negative = inhibition” value was inactive: -2.87%.
For `COc1ccc(C2CC(=O)n3nc(C45CC6CC(CC(C6)C4)C5)nc3S2)cc1OC` (stereo not drawn), the Potency was inconclusive: 18.5 µM [inhibitor, single point].
For `COC(=O)c1[nH]c2ccc(F)cc2c1NS(=O)(=O)c1ccc(F)c(C)c1`, the Potency was inconclusive: 11.7 µM [inhibitor, single point].
In the case of `O=C(COc1ncnc2sccc12)Nc1ccc(F)cc1F`, the “activity change, negative = inhibition” value is reported as inactive: -2.43%.
With `Cc1ccc(C(CNS(=O)(=O)c2ccc(Br)cc2)N2CCN(C)CC2)cc1` (stereo not drawn) the Potency was inconclusive: 18.5 µM [inhibitor, single point].
With `O=C(NCCC1CCCCN1S(=O)(=O)c1ccccc1)C(=O)NCC1CCCO1` (stereo not drawn) the Potency was inconclusive: 18.5 µM [inhibitor, single point].
For `CN(C(=O)COC(=O)/C=C/c1ccc(Cl)c(Cl)c1)c1c(N)n(Cc2ccccc2)c(=O)[nH]c1=O`, the Potency was inconclusive: 10.4 µM [inhibitor, partial curve, poor fit].
In the case of `O=C(Nc1ccc(-n2nncc2-c2ccco2)cc1)c1cccc(F)c1`, the Potency is reported as inconclusive: 18.5 µM [inhibitor, single point].
With `O=C(c1cnn(C(=O)c2ccccc2F)c1)c1ccccc1O` the Potency was inconclusive: 0.165 µM [inhibitor, full curve, poor fit].
With `COc1ccc(CN2CC(C(=O)N3CCOCC3)CC2=O)cc1` (stereo not drawn) the Potency was inconclusive: 16.5 µM [inhibitor, single point].
With `CCOc1ccc(S(=O)(=O)N2CCN(C(=O)c3ccccc3Cc3ccccc3)CC2)cc1` the Potency was inconclusive: 10.4 µM [inhibitor, single point].
With `C/C(CCc1ccc2c(c1)OCO2)=N\NC(=O)c1ccccc1Cl` the “activity change, negative = inhibition” value was inactive: 0%.
In the case of `NC(=O)c1ccc(NC(=O)c2ccc3c(c2)OCO3)cc1`, the “activity change, negative = inhibition” value is reported as inactive: 128%.
With `COc1cc(NC(=O)c2ccc(-c3csc(C)n3)cc2)c(OC)cc1Cl` the Potency was active: 4.15 µM.
With `N=c1c2c3c(sc2nc2n1CCC2)CCCC3` the “activity change, negative = inhibition” value was inactive: 17.6%.
In the case of `Cc1ccsc1/C=N/n1c(-c2cccnc2)n[nH]c1=S`, the Potency is reported as inconclusive: 0.104 µM [inhibitor, full curve, poor fit].
For `CCCCSc1nc2sc3c(c2c(=O)n1-c1ccc(OC)cc1)CCN(C)C3`, the Potency was inconclusive: 8.28 µM [inhibitor, partial curve, poor fit].
For `O=CN1CCCN(C(=O)CC2C(=O)NCCN2Cc2cccc(Oc3ccccc3)c2)CC1` (stereo not drawn), the Potency was inconclusive: 14.7 µM [inhibitor, partial curve, poor fit].
With `CSc1scc2c1-c1nc(SCC(=O)C(C)(C)C)ncc1CC2` the Potency was active: 9.28 µM.
In the case of `Brc1ccc2c(c1)OCCOCCOc1cc(Br)ccc1OCCOCCOCCO2`, the Potency is reported as inconclusive: 13.1 µM [inhibitor, partial curve, poor fit].
With `COc1ccc(C2CC(=O)Oc3c(C(CCN4CCOCC4)c4cc(OC)c(OC)c(OC)c4)c(OC)cc(OC)c32)cc1` (stereo not drawn) the Potency was inconclusive: 11.7 µM [inhibitor, partial curve, poor fit].
In the case of `Cc1c(NC(=S)Nc2ccccc2)c(=O)n(-c2ccccc2)n1C`, the “activity change, negative = inhibition” value is reported as inactive: 8.46%.
In the case of `O=C(NCc1ccc(Cl)cc1)C1CCN(S(=O)(=O)c2cc([N+](=O)[O-])ccc2Cl)CC1`, the Potency is reported as inconclusive: 16.5 µM [inhibitor, single point].
For `CCOC(=O)c1c(C)[nH]c(C)c1S(=O)(=O)N1CCOCC1`, the Potency was active: 6.57 µM.
With `CCN(CC)C(CNC(=O)CSc1nnnn1-c1cccc(F)c1)c1ccco1` (stereo not drawn) the Potency was inconclusive: 2.33 µM [inhibitor, partial curve, poor fit].
For `CCn1cc(C(=O)NCc2ccco2)c(=O)c2cc(S(=O)(=O)N3CCc4ccccc4C3)ccc21`, the Potency was active: 5.22 µM.
With `Cc1ccc(CNC(=O)c2ccccc2N(C)S(C)(=O)=O)cc1` the “activity change, negative = inhibition” value was inactive: -5.61%.
In the case of `CCC1CCCCN1C(=O)COc1ccc2c(c1)OCO2` (stereo not drawn), the Potency is reported as inconclusive: 11.7 µM [inhibitor, partial curve, poor fit].
In the case of `Cn1c(=O)c2c(nc(SCCNS(=O)(=O)c3ccccc3)n2C)n(C)c1=O`, the Potency is reported as active: 14.7 µM.
For `COC(=O)c1ccccc1NC(=O)c1noc2c1CCCC2`, the Potency was active: 9.28 µM.
For `COC(=O)c1cc(OC)c(OC)cc1NC(=O)c1c(-c2ccccc2Cl)noc1C`, the “activity change, negative = inhibition” value was inactive: 13.2%.
For `O=C(Nc1ccc(OC(=O)c2ccco2)cc1)c1ccco1`, the Potency was inconclusive: 11.7 µM [inhibitor, single point].
In the case of `CC(C)NC(=O)CCc1nc2cccnc2n1-c1ccccc1`, the “activity change, negative = inhibition” value is reported as inactive: 4.73%.
In the case of `COc1cccc(CN(C(=O)CN2C(=O)c3ccccc3S2(=O)=O)C(C(=O)NCC2CCCO2)c2ccco2)c1` (stereo not drawn), the “activity change, negative = inhibition” value is reported as inactive: 4.84%.
In the case of `CC1CCN(C(=O)CN(c2ccc(Oc3ccccc3)cc2)S(C)(=O)=O)CC1`, the Potency is reported as inconclusive: 0.185 µM [inhibitor, full curve, poor fit].
For `Cc1ccc(CNC(=O)CCC2CCCN(Cc3ccc4cccc(F)c4n3)C2)o1` (stereo not drawn), the Potency was inconclusive: 8.28 µM [inhibitor, partial curve, poor fit].
In the case of `CSCCNC(=O)c1ccc(OC2CCN(CCc3ccccc3)CC2)cc1`, the Potency is reported as inconclusive: 13.1 µM [inhibitor, single point].
